Experimental data published in PMC3656104.
These are yes or no findings as the source states them, for the method shown.

Chains of the proteins cited; added tags and fusions are not shown.
UniProt P62820: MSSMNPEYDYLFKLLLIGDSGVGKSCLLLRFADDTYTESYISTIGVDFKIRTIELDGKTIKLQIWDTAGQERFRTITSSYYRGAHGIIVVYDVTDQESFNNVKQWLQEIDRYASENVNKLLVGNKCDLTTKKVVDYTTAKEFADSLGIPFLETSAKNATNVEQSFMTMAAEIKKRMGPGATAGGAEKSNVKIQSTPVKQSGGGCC

Biological target: Rab1 (UniProt P62820)
Assay: pull-down; both purified

B1: SidD (enzyme, UniProt Q5ZSQ2 1-507)
chain: MVYYEIIKDIVFTYNLQFTHLIHNDRISEVNLGGVTMRSIITQICNGVLHGQSYQSGSNDLDKGNSEIFASSLFVHLNEQGKEIIKHKDSDDKIVIGYTKDGMAFQIVVDGFYGCERQAVFSFIDNYVLPLIDNFSLDLTRYPDSKKVTESLIHTIYSLRSKHAPLAEFTMSLCVTYQKDEQLFCAGFGIGDTGIAIKRNEGTIEQLVCHTEVDGFKDAFDNYSSANIDLVIERNSVFNTKVMPGDELVGYTYVPPMLEMTEKEFEVETVDGKKINKRIVRHLNLDPGNFDDKDPLFSQLLQVVKSKQKQLVEQAKETGQIQRFGDDFTVGRLVIPDQLLINQLRIHALSIGVSDGLLSYIKNENENKGFLGIYGFFTGADKNIEKATLYKNLIAKYQNNHFISLIILSALVSDSKTPLMTQYLVGYLDFPSKALLANKITELLLKELENPDMREILGSRLATDVIEELETKIIRYIHNPAGSDIHSTLNLWTADKIKAATNSSLTI
binding: no binding
